Values quoted from earlier work in patent publication US11082386B2, “2′-fluoro-6′-methylene carbocyclic nucleosides and methods of treating viral infections” (UNIVERSITY OF GEORGIA RESEARCH FOUNDATION, INC., priority 2009, dated 2021).
For at least one compound, name, drawing or mass did not settle the structure.

Test system: HBV rtL180M+rtM204V/I mutations
Conditions: in vitro; cited from earlier work

Nc1ccn([C@@H]2CS[C@H](CO)O2)c(=O)n1 [lamivudine, reference compound]
fold decreased susceptibility of the virus: > 1000 fold
